At least one compound was matched to its structure with a doubt left.
Experiments:
[1] = system: female Sprague Dawley rats previously treated with olanzapine; assay: Body weight, food intake, body composition and liver triglycerides of rats previously treated with olanzapine and switched (Example 2.2); assay type: in vivo, rat; settings: 3 mg/kg/day, po
Description: Rats were singly housed in cages with sawdust bedding and enrichment at an ambient temperature of 21±2° C. Upon arrival (Thursday), rats were weighed and given wet mash to aid recovery from transport. Rats were weighed the following day and the Monday of the following week. Animals were maintained on a reverse-phase light-dark cycle (lights off for 8 h from 10:00-18:00 h) during which time the room was illuminated by red light. Rats were weighed on the Friday and Monday of the following week. […] All animals had free access to a high-fat powdered diet (VRF1 plus 20% lard) and all rats had access to filtered water at all times. […]
Dosing began at approximately 08:45 h each day (0 h), i.e., so the mid-point of dosing was approximately at the time of lights out. […] Prior to and at the completion of each dosing session animals were examined and any overt behavioral/physiological effects or other relevant observations regarding the condition of the animals was recorded manually. […] and food intake were assessed daily.
(§1) Dosing began at approximately 08:45 h each day (0h), i.e., the mid-point of dosing was approximately at the time of lights out. Body weight, food and water intake was recorded daily at the time of dosing. […] On the morning of Day 15, final readings were undertaken 16 h post-fast (i.e., body weight measurements). […]

[2] = system: female Sprague Dawley rats fed on a high-fat powdered diet; assay: Body weight, food intake, body composition and liver triglycerides, once daily dosing up to 15 days, high-fat diet rats (Example 2.1); assay type: in vivo, rat
Description: Body weight and food and water intake were assessed daily.
Animals: Seventy-four (2 spares) female Sprague Dawley rats (weight range 200-300 g) were ordered from Charles River, Margate, Kent. Rats were singly housed in cages with sawdust bedding and enrichment at an ambient temperature of 21 ± 2° C. Upon arrival (Thursday), rats were weighed and given wet mash to aid recovery from transport. Rats were weighed the following day and on the Monday of the following week. Animals were maintained on a reverse-phase light-dark cycle (lights off for 8 hours from 10:00-18 :00 h) during which time the room was illuminated by red light. Rats were weighed on the Friday and Monday of the following week. […] Except for 12 animals (Group F), all animals had free access to a high-fat powdered diet (VRF1 plus 20% lard). […] All rats had access to filtered water at all times. The diets were contained in glass feeding jars with aluminum lids (Solmedia Laboratory Suppliers. Romford. Essex). […]
as §1, with “Dosing (in a randomized order)” for “Dosing”, “day (0 h),” for “day (0h),”, “dosing is” for “dosing was”, “16 hour” for “16 h”

## Cc1cc2c(s1)Nc1ccccc1N=C2N1CCN(C)CC1 [Olanzapine, olanzapine]
[1]
  body weight and food intake vs vehicle: significantly increased
[2]; 3 mg/kg/day, po
  body weight and food intake vs vehicle: significantly increased
[2]; Compound 1 1, 3 and 10 mg/kg/day po, olanzapine 3 mg/kg/day po
  liver triglycerides levels: No statistically significant effects
